These are yes or no findings as the source states them, for the method shown. Binding seen in cells or lysates may run through a third protein. Some entries that bind do so weakly or less than the wild type. For some assays here: Tags and fused reporters may be left off the sequences shown. Values belong to the binder of their own block, whether it stands above or below them.
Columns and labels:
Assay in all cases: co-IP
[1] = molecular target: MEGF8^ΔMASRPFA (a.a. 2625-2631 deleted), 1D4 tagged, transiently expressed in HEK293T cells (human) (UniProt Q7Z7M0)
[2] = molecular target: T1, MEGF8^ΔN (a.a. 2573-2778; a.a. 26-2572 deleted), 1D4 tagged, transiently expressed in HEK293T cells (human) (UniProt Q7Z7M0)
T1 sequence: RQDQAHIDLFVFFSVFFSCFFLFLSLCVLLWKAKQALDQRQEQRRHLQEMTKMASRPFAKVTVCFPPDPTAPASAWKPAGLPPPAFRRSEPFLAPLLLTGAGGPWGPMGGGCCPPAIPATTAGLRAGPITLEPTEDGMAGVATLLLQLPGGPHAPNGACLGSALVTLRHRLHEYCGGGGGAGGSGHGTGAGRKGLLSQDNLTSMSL

[3] = molecular target: MEGF8^ΔCtail (a.a. 1-2607), 1D4 tagged, transiently expressed in HEK293T cells (human) (UniProt Q7Z7M0)
[4] = molecular target: MEGF8, 1D4 tagged, stably expressed in Megf8^-/- NIH/3T3 cells (human) (UniProt Q7Z7M0)
[5] = molecular target: MEGF8^ΔCtail (a.a. 1-2607), 1D4 tagged, stably expressed in Megf8^-/- NIH/3T3 cells (human) (UniProt Q7Z7M0)

- binding [1]: no binding
- binding [2]: binds
- binding [3]: no binding
B1: MGRN1 (Mahogunin Ring Finger 1), mouse full-length, C-terminal 3xFLAG tag, transiently expressed in HEK293T cells (enzyme, UniProt Q9D074-2 1-533)
chain: MGSILSRRIAGVEDIDIQANSAYRYPPKSAGNYFASHFFMGGEKFDTPHPEGYLFGENMDLNFLGSRPVQFPYVTPAPHEPVKTLRSLVNIRKDSLRLVRYKEDADSPTEDGEKPRVLYSLEFTFDADARVAITIYCQAVEELVNGVAVYSCKNPSLQSETVHYKRGVSQQFSLPSFKIDFSEWKDDELNFDLDRGVFPVVIQAVVDEGDVVEVTGHAHVLLAAFEKHVDGSFSVKPLKQKQIVDRVSYLLQEIYGIENKNNQETKPSDDENSDNSSECVVCLSDLRDTLILPCRHLCLCTSCADTLRYQANNCPICRLPFRALLQIRAVRKKPGALSPISFSPVLAQSVDHDEHSSSDSIPPGYEPISLLEALNGLRAVSPAIPSAPLYEEITYSGISDGLSQASCPLAGLDRIMESGLQKGKTQSKSPDSTLRSPSFPIHEEDEEKLSEDSDAPLPPSGVELVLRESSSPESFGTEEGDEPSLKQGSRVPSIDDVLQDGSPQHHGCSQPVPPADIYLPALGPESCSVGIEE

- binding [4]: binds
- binding [5]: no binding
B2: endogenous MGRN1 of NIH/3T3 cells (enzyme, UniProt Q9D074-2 1-533)
chain: B1 chain
